According to PMC5005315:
These are yes or no findings as the source states them, for the method shown. Binding calls can cover weak binding; strength is not graded here. Where a sequence is shown, tags or fusion partners need not be part of it.

Target: cytoplasmic soluble domain of PorY (PorYC) fused to the T25 domain (Porphyromonas gingivalis ATCC33277) (UniProt B2RMC4)
Assay: two-hybrid

B1: PorX fused to the T18 domain of the Bordetella adenylate cyclase (protein, UniProt B2RJJ3 1-518)
chain: MEKNMRPYTVLWADDEIDLLKPHILFLEQKGYQVTPVLSGNDAIEALQNNDFDIVFLDENMPGIGGLDALQKIKELKPYTPVVMITKSEEEHIMTQAIGGKIADYLIKPVNPNQLLLSLKKNLQQHSIISETTNTNYRQEFVQLGAQMSGKLSFEEWKELYRRIVFWEIELEQADRQMGELLEMQKQEANRLFARFVTQNYREWIAKPDTRPTMSPDLFKQKVFPLLDNGEKVFFILIDNFRQDQWESVKSMLSEFYTFEEDMYLSILPTATQYARNAIFSGLMPLQIEKMFPDLWVDEESEEGKNLNEEPMIRTLIERYRKHYSFSYNKVYETKFGERLLGQIRSLSQNQLNVIVLNFVDMMSHARTDSKMIRELASNEAAYRSLTKSWFKHSTTYNLFRSIAEMGYKVVLTTDHGTIQVKNPVKVIGDRSTNTNLRYKIGKNLDYNPKEVFEIKDPASVGLPHNNLSDKFIFTKEDDFFAYPNNYNYYVQYYRNTFQHGGISLEEMLVPVITMQPK
Question: B1 was tested. Which binding did it give?
Answer: binds
